Reference: publication PMC12040169 (PLOS Biology, 2025)
The list shows a part of the results.

system: T1, CTL2-GFP (C. trachomatis L2/434/Bu, GFP-expressing); set-up: species or system HeLa; Intracellular C. trachomatis growth in HeLa cells, bulk GFP fluorescence relative to DMSO; conditions: bulk GFP, single well; 28.5 h, 10 µM; inhibitor
T1 construct: L2/434/Bu, GFP-expressing

Row | Structure (SMILES) | % of control remaining
1 | CCCSc1cc(=O)oc2ccccc12 [CBK017493] | 93.5109%
2 | COc1cccc(C(=O)N2CC=C[C@H]2C(=O)NC2CC2)c1 [CBK284278] | 57.7312%
3 | O=S(=O)(c1ccc(-c2ccc(S(=O)(=O)N3CCCCC3)cc2)cc1)N1CCCCC1 [CBK261257] | 102.226%
4 | COc1cccc(CC(=O)N2CCCC(c3cc4ncccc4[nH]3)C2)c1 (stereo not shown) [CBK283426] | 140.159%
5 | NC(=O)c1ccc(NC(=O)COc2ccc3ccccc3c2)cc1 [CBK263738] | 124.083%
6 | O=C(NCc1cccc2ccccc12)N1CCN(Cc2ccccc2)CC1 [CBK155628] | 127.647%
7 | CCn1cc(CN2C3CCC2CC(O)(c2ccc(F)cc2)C3)cn1 (stereo not shown) [CBK282741] | 144.584%
8 | O=C(NC(C(=O)N/N=C/c1ccc(O)cc1)c1n[nH]c(=O)c2ccccc12)c1ccccc1 (stereo not shown) [CBK262839] | 93.1756%
9 | CC(C)Cn1c(=O)[nH]c2ncc(-c3ccc(C(=O)NC4CCCC4)cc3)nc21 [CBK064551] | 169.187%
10 | NCC1CCN(c2nc(-c3cc(C(F)(F)F)cc(C(F)(F)F)c3)cnc2N)CC1 [CBK063960] | 175.421%
11 | NCCNc1ccc([N+](=O)[O-])c(NCc2ccccc2)c1 [CBK262757C] | 84.8158%
12 | Cc1ccc(NC(=O)c2c[nH]c(=O)[nH]c2=O)cc1 [CBK113246] | 128.857%
13 | Cc1cccc([C@H]2CN(C(=O)C3CCCC3)[C@@H]3CCN(C4CCCC4)C[C@H]23)c1 [CBK285529] | 107.586%
14 | COc1ccc(C(C)NC(=O)C2CCCCC2C(=O)O)cc1OC (stereo not shown) [CBK270309] | 128.713%
15 | c1cc(-c2nccnc2NCC2CCCCC2)ccn1 [CBK037627] | 125.044%
16 | CC(=O)Nc1nc(-c2ccc(Cl)s2)cs1 [CBK287317] | 165.407%
17 | [O-][n+]1c2c([n+]([O-])c3c1CCCC3)CCCC2 [CBK261714] | 113.485%
18 | Cn1ccnc1[S+]([O-])Cc1nc2ccccc2s1 (stereo not shown) [CBK005549] | 108.317%
19 | O=C(CC1CCN(Cc2cccc(C(F)(F)F)c2)CC1)N(Cc1ccccn1)C1CC1 [CBK286494] | 100.914%
20 | c1ccc2c(c1)OCC(COc1nccnc1OC1CCN(CC3CC3)CC1)O2 (stereo not shown) [CBK083001T] | 108.608%
21 | CCC(CO)NC(=O)C1(Cc2ccc(-c3cc(C)cc(C)c3)cc2)CCOCC1 (stereo not shown) [CBK286522] | 131.258%
22 | O=C(Cc1ccc(F)cc1)N1CC[C@@H](c2ccccc2)[C@H](O)C1 [CBK283714] | 137.313%
23 | Cc1cc(NC(=O)C(C)SCc2cccc(C(F)(F)F)c2)no1 (stereo not shown) [CBK306233] | 182.12%
24 | CC(C)(C)c1cc(NC(=O)Cn2nc(C(=O)O)c3ccccc3c2=O)n(-c2ccccc2)n1 [CBK297557] | 147.75%
25 | O=C(O)c1ccc(S(=O)(=O)c2ccc3c(c2)C(=O)N(c2ccccc2-c2ccccc2)C3=O)cc1 [CBK262760] | 92.1508%
26 | CCOc1ccsc1C(=O)N1CCC(Cc2ccccc2)CC1 [CBK200186] | 92.79%
27 | CCOc1ccc(-c2cc(C(=O)NCc3cc(OC)ccc3OC)n[nH]2)cc1 [CBK288116] | 137.31%

Row | Structure (SMILES) | % of control remaining
28 | COc1ccc(-c2cnc(N)c(-c3ccc(F)c(Cl)c3)n2)cn1 [CBK063966] | 116.557%
29 | O=C(Cn1cc(C(=O)NCC2(c3ccccc3)CCCC2)ccc1=O)NC1CCCC1 [CBK286040] | 130.198%
30 | CCN(CC(=O)NCc1ccncc1)S(=O)(=O)c1ccccc1 [CBK269537] | 156.561%
31 | CC(C)(C)CC(C)(C)Nc1nc(N)nc(N)n1 [CBK022832] | 119.221%
32 | O=C(CSc1nnc(CN2CCOCC2)n1-c1ccc(Cl)cc1)N1c2ccccc2SC2C=CC=CC21 (stereo not shown) [CBK268820] | 120.416%
33 | CC1COCC(C)N1c1ccc2nnc(-c3ccc(C(F)(F)F)cc3)n2n1 (stereo not shown) [CBK009548] | 139.246%
34 | Cn1ncc2c(=O)n(Cc3nnsc3Cl)cnc21 [CBK237374] | 126.202%
35 | CN(C)CCCC(=O)Nc1ccc2[nH]ccc2c1 [CBK159698] | 109.023%
36 | O=C(CN1CCCC[C@H]2CN(C(=O)c3cccs3)C[C@H]21)NC1CC1 [CBK285504] | 98.7599%
37 | Cc1ccc(-n2c(SCC(=O)Nc3ccccc3F)nnc2-c2ccccc2O)c(C)c1 [CBK268905] | 122.939%
38 | Fc1ccc(OCCNCC2NCCc3c2[nH]c2ccccc32)cc1 (stereo not shown) [CBK066972] | 100%
39 | O=C(N1CCOCC1)N1CCN(c2cncc(-c3ccc(O)cc3)n2)CC1 [CBK126946T] | 124.483%
40 | COc1ccc(/N=C2\S[C@H]3[C@H]([C@@H](O)[C@H](O)C[C@@H]3C(N)=O)N2Cc2ccc(F)cc2)cc1 [CBK288942] | 125.942%
41 | CCC(CN1CCCC1)NC(=O)C1(c2ccccc2)CCOCC1 (stereo not shown) [CBK282758] | 126.547%
42 | O=C(Nc1cncc(OC2CCNCC2)n1)c1ccoc1 [CBK036366T] | 120.431%
43 | COc1ccc(CN2CCC(N3CCCCCC3)CC2)cc1OC [CBK264721G] | 100%
44 | Cc1cnc(NC(=O)c2ncoc2-c2cccs2)s1 [CBK283977] | 112.791%
45 | Clc1cc(Cl)cc(-c2cn3ccnc3c(NCc3ccncc3)n2)c1 [CBK066664] | 189.807%
46 | O=[N+]([O-])c1cc2c(cc1C1NN=C(c3ccccc3)S1)OCO2 (stereo not shown) [CBK262540] | 102.832%
47 | CCc1ccc(-n2nc3ccc(NC(=S)NC(=O)c4cc5ccccc5o4)cc3n2)cc1 [CBK264258] | 100%
48 | COc1ccc(C2=NN(C(=O)CCC(=O)O)C(c3cccs3)C2)cc1OC (stereo not shown) [CBK266656] | 94.7431%
49 | COC(=O)[C@@H](C)NC(=O)[C@@H]1CN(S(C)(=O)=O)CCN1C(=O)c1cccs1 [CBK289623] | 143.46%
50 | O=C(c1ccncc1)N1C[C@H]2CCc3c(n[nH]c3C(F)(F)F)[C@H]2C1 [CBK282110] | 151.357%
51 | COc1ccc(CN2CCC(N3CCCCC3)CC2)c(OC)c1 [CBK261848] | 100%
52 | CC(C)C(=O)N1CCCC(n2nc(-c3cccs3)ccc2=O)C1 (stereo not shown) [CBK284038] | 107.911%
53 | O=C(CNS(=O)(=O)c1ccc(F)cc1)N1CCOCC1 [CBK042214] | 118.747%
54 | CCCCc1cc(C[C@@H]2C[C@H](NS(C)(=O)=O)C2(C)C)no1 [CBK289702] | 160.022%

Row | Structure (SMILES) | % of control remaining
55 | Nc1nc(SCCCC(=O)NC2CCCCC2)nc2sc3c(c12)CCCC3 [CBK266176] | 128.111%
56 | CN(C)C(=O)CSc1nc2cc(Cl)ccc2c(=O)n1CC1CCCO1 (stereo not shown) [CBK305932] | 119.143%
57 | O=C(NCCc1cccs1)NCc1cc(F)ccc1F [CBK045363] | 117.059%
58 | Cc1cc(CC(=O)N2CCC(Cn3cncn3)(C3CCCCC3)CC2)on1 [CBK136795] | 100%
59 | CC1=C[C@@H](CNC(=O)c2ccccn2)[C@H](C(C)C)C[C@H]1CC(=O)O [CBK289212] | 127.032%
60 | COc1ccnc(N2CCCN(CCc3ccc(OC)c(OC)c3)CC2)n1 [CBK084002] | 129.909%
61 | COc1ccc2cc(OCCO)ccc2c1 [CBK176054] | 144.776%
62 | O=C(CC1CCN(Cc2ccccn2)CC1)NCC1(c2ccccc2)CCCC1 [CBK285959] | 137.504%
63 | CCn1c(C(O)c2ccc(OC)c(OC)c2)nc2ccccc21 (stereo not shown) [CBK262974] | 125.367%
64 | Cc1ccc(OCC(=O)O/N=C(\N)Cc2ccc([N+](=O)[O-])cc2)c(C)c1 [CBK263102] | 113.882%
65 | CC1CCc2c(sc3ncnc(NCC(=O)N4CCCC4)c23)C1 (stereo not shown) [CBK306079] | 138.465%
66 | CN(C)S(=O)(=O)CCNC(=O)c1ccc(-c2ccccc2CO)cc1 [CBK306773] | 113.297%
67 | O=C1NC2(CCN(C(=O)Cc3c(F)ccc(F)c3F)CC2)Oc2ccc(-c3ccoc3)cc21 [CBK115848] | 105.677%
68 | Cn1ccnc1C1(O)C2CCCC1CN(CC1CCCCC1)C2 (stereo not shown) [CBK285220] | 152.454%
69 | O=C1NCC2(C/C=C/CCOc3ccccc31)CCN(C(=O)CCc1ccccc1)CC2 [CBK292017] | 129.416%
70 | O=C(Cn1cncn1)c1ccc2c(c1)CCO2 [CBK020087] | 106.781%
71 | COc1cc(Nc2cc(-c3ccccc3N(C)C)ncn2)cc(OC)c1OC [CBK090702] | 138.007%
72 | COC(=O)[C@H]1Cc2cc3c(cc2[C@H]1c1cc(OC)c(OC)c(OC)c1)OCO3 [CBK200105] | 65.4029%
73 | Cn1ccnc1C1(O)CCN(C(=O)Nc2cccc(F)c2)CC1 [CBK282279] | 123.583%
74 | COc1ncc(-c2nccnc2OC2CCCCC2)c(OC)n1 [CBK106745] | 100%
75 | O=C(CSc1nnc(CN2CCOCC2)n1-c1ccccc1)N1CCN(c2ccccc2)CC1 [CBK266660] | 155.576%
76 | CN(C)CCCN(C(=O)c1ccccc1)c1nc2ccc(F)cc2s1 [CBK287640] | 110.402%
77 | CCC(C)c1ccc(NC(=O)CSc2nc3cccnc3[nH]2)cc1 (stereo not shown) [CBK264349] | 100%
78 | CCCN(Cc1ccoc1)CC1CC1 [CBK018931] | 128.97%
79 | C/C(=N\NC(=O)CC1(C)OCCO1)c1oc(C)cc1C [CBK022234] | 158.413%

Molecules shown so far with a tert-butyl group (two):
Row | Structure (SMILES) | % of control remaining
24 | CC(C)(C)c1cc(NC(=O)Cn2nc(C(=O)O)c3ccccc3c2=O)n(-c2ccccc2)n1 [CBK297557] | 147.75%
31 | CC(C)(C)CC(C)(C)Nc1nc(N)nc(N)n1 [CBK022832] | 119.221%

Copied from the listing, two compounds:
Row | Structure (SMILES) | % of control remaining
62 | O=C(CC1CCN(Cc2ccccn2)CC1)NCC1(c2ccccc2)CCCC1 [CBK285959] | 137.504%
63 | CCn1c(C(O)c2ccc(OC)c(OC)c2)nc2ccccc21 (stereo not shown) [CBK262974] | 125.367%
